No constants are given. Whether binding was seen depends on the method and setting. In cells and extracts the contact can be indirect. Some binding calls cover weakened binding; strength is not graded here. For some assays here: Sequences can lack the tags named with a protein.
T1: Flag-XAF-1 (human) (UniProt Q6GPH4)
T1 sequence: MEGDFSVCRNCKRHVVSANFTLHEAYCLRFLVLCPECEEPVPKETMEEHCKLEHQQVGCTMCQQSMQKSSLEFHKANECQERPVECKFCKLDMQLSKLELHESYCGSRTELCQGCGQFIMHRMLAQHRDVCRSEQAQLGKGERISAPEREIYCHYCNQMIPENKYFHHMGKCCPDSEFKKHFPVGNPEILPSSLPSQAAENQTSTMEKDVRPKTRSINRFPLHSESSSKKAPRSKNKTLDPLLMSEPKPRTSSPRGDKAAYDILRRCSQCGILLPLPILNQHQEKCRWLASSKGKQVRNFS

The chains behind the UniProt entries cited, without tags or fusion partners. Where a name states a change or a piece, a line headed by the entry shows the natural chain unless it says otherwise. Residues count along the entry.
UniProt P98170: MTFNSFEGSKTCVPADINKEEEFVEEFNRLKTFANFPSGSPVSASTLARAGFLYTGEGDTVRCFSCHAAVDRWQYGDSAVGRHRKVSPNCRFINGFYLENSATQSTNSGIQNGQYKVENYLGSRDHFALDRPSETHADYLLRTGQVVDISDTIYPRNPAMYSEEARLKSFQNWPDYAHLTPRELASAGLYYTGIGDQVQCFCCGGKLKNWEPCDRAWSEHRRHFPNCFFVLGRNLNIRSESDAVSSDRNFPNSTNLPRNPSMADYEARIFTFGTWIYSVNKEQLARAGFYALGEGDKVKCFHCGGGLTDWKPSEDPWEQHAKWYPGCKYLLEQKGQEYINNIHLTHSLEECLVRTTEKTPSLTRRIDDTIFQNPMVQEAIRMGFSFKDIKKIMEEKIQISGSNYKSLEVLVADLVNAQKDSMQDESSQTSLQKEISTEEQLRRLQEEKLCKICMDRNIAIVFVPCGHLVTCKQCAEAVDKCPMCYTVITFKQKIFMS
UniProt Q3U9F6: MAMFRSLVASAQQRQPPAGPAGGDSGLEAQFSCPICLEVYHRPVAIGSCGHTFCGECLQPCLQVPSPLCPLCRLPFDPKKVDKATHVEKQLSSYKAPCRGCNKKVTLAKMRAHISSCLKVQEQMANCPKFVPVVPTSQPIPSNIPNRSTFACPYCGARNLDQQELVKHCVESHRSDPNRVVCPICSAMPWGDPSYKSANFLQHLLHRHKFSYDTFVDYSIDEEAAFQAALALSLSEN
hRNF166 ΔC (1-199) (Q96A37, residues 1-199): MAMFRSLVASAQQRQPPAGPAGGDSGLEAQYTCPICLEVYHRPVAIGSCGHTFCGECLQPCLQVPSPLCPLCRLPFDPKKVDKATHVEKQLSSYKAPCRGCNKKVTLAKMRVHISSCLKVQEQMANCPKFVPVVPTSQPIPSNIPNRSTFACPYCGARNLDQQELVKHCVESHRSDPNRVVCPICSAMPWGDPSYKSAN
hRNF166 ΔN (110-237) (Q96A37, residues 110-237): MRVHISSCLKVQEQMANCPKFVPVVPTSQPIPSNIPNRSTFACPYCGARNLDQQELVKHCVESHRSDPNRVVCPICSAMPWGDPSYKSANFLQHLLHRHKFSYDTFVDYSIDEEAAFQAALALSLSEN

B1: Flag-XAF-1 (protein, UniProt Q6GPH4 1-301)
chain: T1 sequence

Legend:
Flag-XIAP (human) [1] = molecular target: Flag-XIAP (human) (UniProt P98170); test: co-IP; domain mapping by co-immunoprecipitation (Supplementary Fig. 6A, B); cells and antibodies not told in the text shown
Flag-XIAP (human) [2] = molecular target: Flag-XIAP (human) (UniProt P98170); test: co-IP; MN9D cells transfected with V5-RNF166 and Flag-XIAP for 48 h, with or without 100 µM 6-OHDA for 9 h; immunoprecipitation with anti-Flag M2 affinity gel, immunoblot with anti-V5 and anti-Flag
Flag-XAF-1 (human) = molecular target: T1, Flag-XAF-1 (human); test: co-IP; HEK293 cells transfected with tagged constructs alone or in combination (for XIAP and RNF166 also with co-expressed V5-XAF-1); lysed in RIPA buffer; immunoprecipitation with anti-Flag M2 affinity gel or anti-V5 antibody overnight at 4 °C, immunoblotting
Flag-XIAP (human) [3] = molecular target: Flag-XIAP (human) (UniProt P98170); test: as above
GST-RNF166 (mouse) = GST-RNF166 (mouse) (UniProt Q3U9F6); test: pull-down; 30 µg purified GST-RNF166 on glutathione beads, 2 mg lysate of HEK293 cells overexpressing Flag-XAF-1, overnight at 4 °C; 25 mM Tris-HCl pH 7.5, 1 mM DTT, 30 mM MgCl2, 40 mM NaCl, 0.5% NP40; anti-Flag immunoblot; only the target purified

Row | Molecule | binding (Flag-XIAP (human) [1]) | further results
1 | V5-RNF166 (from UniProt Q3U9F6 1-237) | binds | binding (Flag-XIAP (human) [2]): binds; binding (Flag-XAF-1 (human)): binds; binding (Flag-XIAP (human) [3]): binds
2 | hRNF166 ΔC (1-199) (from UniProt Q96A37-1 1-199) (domain or fragment) | binds | –
3 | hRNF166 ΔN (110-237) (from UniProt Q96A37-1 110-237) (domain or fragment) | binds | –
4 | human RNF166 in pcDNA 3.1-V5 His (hRNF166, wild type) (from UniProt Q96A37-1 1-237) | binds | –
5 | B1 | – | binding (GST-RNF166 (mouse)): binds

Reference: paper PMC7603511
